## Results of single-concentration screens

Sequences of proteins named here, by UniProt entry; tags and fusion partners are left off. Residues count along the entry.
UniProt I6X8D2, whole entry: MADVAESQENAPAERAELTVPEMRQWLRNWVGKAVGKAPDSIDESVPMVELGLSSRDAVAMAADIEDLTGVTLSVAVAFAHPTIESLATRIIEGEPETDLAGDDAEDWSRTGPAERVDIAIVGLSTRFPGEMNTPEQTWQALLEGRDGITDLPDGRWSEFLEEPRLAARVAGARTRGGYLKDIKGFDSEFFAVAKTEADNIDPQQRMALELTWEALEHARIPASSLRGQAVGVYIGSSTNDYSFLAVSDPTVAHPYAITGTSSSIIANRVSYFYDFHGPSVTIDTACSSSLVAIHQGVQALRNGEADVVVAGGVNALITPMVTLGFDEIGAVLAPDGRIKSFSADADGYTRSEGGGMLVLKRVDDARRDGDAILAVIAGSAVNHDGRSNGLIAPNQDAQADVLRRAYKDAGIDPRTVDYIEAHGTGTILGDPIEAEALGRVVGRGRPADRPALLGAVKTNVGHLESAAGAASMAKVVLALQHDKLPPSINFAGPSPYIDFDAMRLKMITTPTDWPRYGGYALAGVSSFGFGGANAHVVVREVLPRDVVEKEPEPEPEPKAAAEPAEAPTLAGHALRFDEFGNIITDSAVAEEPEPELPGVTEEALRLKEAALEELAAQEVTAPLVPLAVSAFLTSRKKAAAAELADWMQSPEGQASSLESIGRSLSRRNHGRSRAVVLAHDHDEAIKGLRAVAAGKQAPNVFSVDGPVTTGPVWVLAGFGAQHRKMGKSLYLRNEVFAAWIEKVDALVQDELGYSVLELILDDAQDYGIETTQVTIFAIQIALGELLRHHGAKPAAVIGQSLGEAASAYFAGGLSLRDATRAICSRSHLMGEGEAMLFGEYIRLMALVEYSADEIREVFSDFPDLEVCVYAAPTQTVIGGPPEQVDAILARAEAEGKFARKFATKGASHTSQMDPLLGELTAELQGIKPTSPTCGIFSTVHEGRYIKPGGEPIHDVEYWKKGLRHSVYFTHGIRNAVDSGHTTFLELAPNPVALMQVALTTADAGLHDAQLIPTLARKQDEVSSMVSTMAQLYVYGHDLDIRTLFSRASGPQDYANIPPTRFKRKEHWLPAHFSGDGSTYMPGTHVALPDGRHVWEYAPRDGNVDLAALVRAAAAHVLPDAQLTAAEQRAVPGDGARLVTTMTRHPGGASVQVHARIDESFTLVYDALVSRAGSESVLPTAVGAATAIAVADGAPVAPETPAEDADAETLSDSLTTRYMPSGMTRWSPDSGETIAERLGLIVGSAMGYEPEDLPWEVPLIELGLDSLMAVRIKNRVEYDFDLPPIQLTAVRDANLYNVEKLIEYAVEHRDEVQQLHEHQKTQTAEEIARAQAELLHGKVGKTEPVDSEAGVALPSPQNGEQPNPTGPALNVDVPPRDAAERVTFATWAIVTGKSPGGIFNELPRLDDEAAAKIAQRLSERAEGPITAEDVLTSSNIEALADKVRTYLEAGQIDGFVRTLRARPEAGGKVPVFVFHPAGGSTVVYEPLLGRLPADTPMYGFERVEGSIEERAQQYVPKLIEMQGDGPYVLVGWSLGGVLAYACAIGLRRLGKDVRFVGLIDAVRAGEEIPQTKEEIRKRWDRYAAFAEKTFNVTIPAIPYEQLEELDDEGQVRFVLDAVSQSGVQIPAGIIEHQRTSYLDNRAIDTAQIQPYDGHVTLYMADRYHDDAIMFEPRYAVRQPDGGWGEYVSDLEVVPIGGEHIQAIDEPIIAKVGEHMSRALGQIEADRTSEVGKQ
UniProt A4I591, 1-473: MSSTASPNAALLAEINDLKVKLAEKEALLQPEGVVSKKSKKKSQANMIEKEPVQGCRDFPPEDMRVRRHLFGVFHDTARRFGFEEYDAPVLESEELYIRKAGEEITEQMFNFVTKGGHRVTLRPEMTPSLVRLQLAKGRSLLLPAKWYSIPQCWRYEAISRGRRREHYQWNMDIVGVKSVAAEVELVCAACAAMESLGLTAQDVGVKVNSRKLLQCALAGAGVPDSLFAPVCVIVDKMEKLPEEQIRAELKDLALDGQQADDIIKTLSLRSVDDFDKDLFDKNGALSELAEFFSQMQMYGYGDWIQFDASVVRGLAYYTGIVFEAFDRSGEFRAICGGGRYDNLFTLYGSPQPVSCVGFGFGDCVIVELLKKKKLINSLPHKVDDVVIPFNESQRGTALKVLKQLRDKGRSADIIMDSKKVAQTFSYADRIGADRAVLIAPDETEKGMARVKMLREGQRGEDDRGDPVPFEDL

The values are deposited in ChEMBL (CHEMBL3988442, “University of Dundee, Small-Polar-MMV Screening Library” (2021)).

Leishmania in macrophages: 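Cell assay of Leishmania donovani living inside macrophages; the read-out is not stated. Tested at 30 µM. Higher reads as stronger inhibition (inferred: compounds with an IC50 in retests scored well above the rest). About 69,000 compounds were tested under these conditions; 1.5% (about 1,000) showed 50% or more at least once.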
Pks13 thioesterase: 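Enzyme assay of the thioesterase domain of polyketide synthase 13; the read-out is not stated. Target: Polyketide synthase Pks13, Mycobacterium tuberculosis (UniProt I6X8D2). Compounds at 30 µM. Higher reads as stronger inhibition (inferred from which compounds were picked for retests). Of about 67,000 compounds tested this way, about 300 (0.46%) reached 50% or more in at least one test.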
LiHisRS: 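Enzyme assay of histidyl-tRNA synthetase; the read-out is not stated. Target: Histidine-tRNA ligase, Leishmania infantum (UniProt A4I591). Compounds at 30 µM. Direction is inferred from retests: higher values go with stronger inhibition. The assay is labelled LdHisRS but filed under L. infantum. Size under these conditions: about 69,000 compounds, about 410 of them at 50% or above in at least one test.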

Values are the deposited “Percent Effect”, in %. How 0% and 100% were set is not recorded. Most values in the screen are low, and negative values occur. This is an unselected part of the compounds tested. Two or more numbers in one place are separate tests of the same structure; such repeats can differ widely. A dash means the value is not listed here; it may have been measured.

- NC(=O)CN1CCCC(c2cncc(Nc3ncccn3)n2)C1 (stereo not given) | Leishmania in macrophages: 9.735% and 11.98%; Pks13 thioesterase: 26.43%; LiHisRS: 12.37%
- CCN1CCN(C(=O)c2cnc3c(cnn3C3CCCC3)c2)CC1 | Leishmania in macrophages: 23.46%; Pks13 thioesterase: 2.825%; LiHisRS: 14.29%
- Cc1nc(CO[C@H]2CN(C(=O)c3cccnc3)[C@@H]3COC[C@H]23)cs1 | Pks13 thioesterase: -9.987%; LiHisRS: 6%
- COc1ccnc(N2CCC3(CC2)[C@H](O)C[C@@H]3OCCN(C)C)n1 | Leishmania in macrophages: 17.66%; Pks13 thioesterase: -13.43%; LiHisRS: 8.264%
- Cc1nnc(C(C)NCC2(c3ccc(Cl)cc3)CCCC2)o1 (stereo not given) | Leishmania in macrophages: 4.567%; Pks13 thioesterase: -1.177%; LiHisRS: 0%
- COc1cccc(CC(=O)NCc2cnc(C)nc2C2CCCN2C)c1 (stereo not given) | Leishmania in macrophages: -14.86% and 4.691%; Pks13 thioesterase: 10.25%; LiHisRS: 12.37%
- CS(=O)(=O)N[C@@H]1CCN(Cc2ccncc2)[C@H]1Cc1cccnc1 | Leishmania in macrophages: 29.53%; Pks13 thioesterase: -9.102%; LiHisRS: 0%
- CN(Cc1csc2ccccc12)C(=O)NC1CCS(=O)(=O)C1 (stereo not given) | Leishmania in macrophages: 11.38%; Pks13 thioesterase: -0.5041%; LiHisRS: 13.33%
- O=C(NCCC1CC1)NCc1cccc(-n2ccnc2)c1 | Leishmania in macrophages: -0.9626% and -3.441%; Pks13 thioesterase: -6.176%; LiHisRS: 21.05%
- COCCN1CCN(Cc2nccs2)[C@H]2CS(=O)(=O)C[C@H]21 | Pks13 thioesterase: -10.11%; LiHisRS: 11.11%
- COc1cccc(CN2CCC3(CC2)CCN(c2ncc(C)cn2)C3)c1 | Pks13 thioesterase: -24.19%; LiHisRS: 15.79%
- Cc1cccc(CN2Cc3[nH]nc(COCC4CC4)c3C2)n1.O=C(O)C(F)(F)F | Leishmania in macrophages: -62.98% and 0.6246%
- CCc1cc(NCCNc2cccnc2)n2nccc2n1 | Leishmania in macrophages: 34.73%; Pks13 thioesterase: -7.018%; LiHisRS: 15.38%
- COc1ccc(Nc2cc(C)nc(C)n2)cc1N1CCCC1=O | Leishmania in macrophages: 5.141%; Pks13 thioesterase: -33.74%; LiHisRS: 12.7%
- Cc1ccc(N2CC[C@@H]3O[C@@H](c4ccncn4)C[C@H]3C2)nn1 | Pks13 thioesterase: -20.51%; LiHisRS: 16.24%
- CN(C)Cc1nn(C)c2c1CN(S(=O)(=O)c1ccccc1F)C2 | Leishmania in macrophages: -5.908% and 5.936%; Pks13 thioesterase: -4.425%; LiHisRS: 2.655%
- Cc1ccc2c(n1)N(CCn1cccn1)CCN(C(=O)NC(C)C)C2 | Leishmania in macrophages: 9.972%; Pks13 thioesterase: -46.79%; LiHisRS: 5.556%
- O=C(CCNS(=O)(=O)c1ccc2c(c1)CCCC2)NCc1ccoc1 | Leishmania in macrophages: 40.5%; Pks13 thioesterase: -2.311%; LiHisRS: 26.21%
- Cc1noc([C@@H]2CC[C@@H]3[C@@H](CCN3S(=O)(=O)c3cccnc3)O2)n1 | Pks13 thioesterase: 4.219%; LiHisRS: 13.46%
- Cc1nc([C@@H]2C[C@@H]3CCN(C(=O)c4ccsc4)C[C@H]3O2)no1 | Pks13 thioesterase: -3.85%; LiHisRS: 0%
- CN1CCN(S(=O)(=O)c2ncn(C)c2Cl)CC1 | Leishmania in macrophages: 21.76%; Pks13 thioesterase: -36.29%; LiHisRS: 28.77%
- CC(Cn1cccn1)NC(=O)CCc1ccc(S(N)(=O)=O)cc1 (stereo not given) | Leishmania in macrophages: 14.51%; Pks13 thioesterase: -20.96%; LiHisRS: 8%
- CC(C)N1CCC[C@H]1C(=O)NCC1CCN(c2cnn(C)c(=O)c2)CC1 | Leishmania in macrophages: 24.02%; Pks13 thioesterase: -13.11%; LiHisRS: 17.74%
- O=C(Cc1cccs1)NCC1Cn2nnc(-c3ccoc3)c2CO1 (stereo not given) | Leishmania in macrophages: 14.74%; Pks13 thioesterase: -34.1%; LiHisRS: 27.59%
- CCC(CC)C(=O)N1CCCc2c(cnn2C)C1 | Leishmania in macrophages: -5.284%; Pks13 thioesterase: 10.25%; LiHisRS: 11.59%
- COc1ccc(C(=O)N(c2ccc(OC)c(F)c2)C(C)C)cn1 | Leishmania in macrophages: -5.719%; Pks13 thioesterase: -26.31%; LiHisRS: 7.042%
- Cl.Cl.Cn1cc(C(=O)NCc2cncc3c2CCN(CC2CC2)C3)cn1 | Leishmania in macrophages: 39.57%
- Cc1ccc(C2(CN3CCN(Cc4cn(C)nc4C)CC3)CC2)cc1 | Pks13 thioesterase: 19.46%; LiHisRS: 7.042%
- CN1C(=O)[C@H]2CC[C@@H]1CN(C(=O)Nc1ccccc1C(F)(F)F)C2 | Pks13 thioesterase: 1.716%; LiHisRS: 7.843%
- Cn1nc2c(cc1=O)CN(Cc1coc(-c3ccc(F)cc3)n1)CC2 | Leishmania in macrophages: 12.83%; Pks13 thioesterase: 11.13%; LiHisRS: 90.35%
- CNC(=O)C1CCC(NC(=O)c2cc(C3CC3)n(C(C)(C)C)n2)CC1 (stereo not given) | Leishmania in macrophages: 8.207%; Pks13 thioesterase: -2.426%; LiHisRS: 2.174%
- Cc1nc(CN2CCCC2c2noc(C3CC3)n2)nc2ccccc12 (stereo not given) | Leishmania in macrophages: -7.121%; Pks13 thioesterase: -36.73%; LiHisRS: 42.2%
- CC(NC(=O)N(C)CCOc1ccccc1F)c1nncn1C (stereo not given) | Leishmania in macrophages: 27.69%; Pks13 thioesterase: -1.627%; LiHisRS: 13.79%
- Cc1ccc(CN2CCC3(C2)C(=O)N(CC(N)=O)c2ccccc23)s1 (stereo not given) | Leishmania in macrophages: 18.66%; Pks13 thioesterase: -35.53%; LiHisRS: 11.46%
- CCOc1ccc(CN(C)C(=O)COc2ccc(C)nc2)cc1 | Leishmania in macrophages: 14.88%; LiHisRS: 11.4%
- Cc1ccoc1C(=O)N1CCCC(CNS(C)(=O)=O)C1 (stereo not given) | Leishmania in macrophages: -2.341%; Pks13 thioesterase: -12.14%; LiHisRS: 4.386%
- Cn1cnc2c1C(COCC1CCOCC1)CN(C(=O)C1CC=CC1)C2.O=C(O)C(F)(F)F (stereo not given) | Leishmania in macrophages: 22.09%
- COc1ccc(S(=O)(=O)NCCC(=O)NCc2ccoc2)cc1OC | Leishmania in macrophages: 14.16%; Pks13 thioesterase: -11.59%; LiHisRS: 20.54%

Once more, the final 4:

compound,Leishmania in macrophages,Pks13 thioesterase,LiHisRS
CCOc1ccc(CN(C)C(=O)COc2ccc(C)nc2)cc1,14.88%,-,11.4%
Cc1ccoc1C(=O)N1CCCC(CNS(C)(=O)=O)C1 (stereo not given),-2.341%,-12.14%,4.386%
Cn1cnc2c1C(COCC1CCOCC1)CN(C(=O)C1CC=CC1)C2.O=C(O)C(F)(F)F (stereo not given),22.09%,-,-
COc1ccc(S(=O)(=O)NCCC(=O)NCc2ccoc2)cc1OC,14.16%,-11.59%,20.54%